About 3,700 (1.2%) of roughly 300,000 compounds were called active. This list was built around the results that the source calls inconclusive (neither active nor inactive); the mix of calls is not that of the screen. Calls come from the whole dose curve; tested in HEK293 cells. Where the call is inconclusive, the potency comes from a doubtful curve fit. Where a SMILES comes first, the peptide text is derived from it. [ ]: non-standard residue; d: D form. The star is where a group is joined. ξ: configuration not given here. ξNMe2Val = CC(C)C(C(=O)*)N(C)C; NMeV = CN[CH](C(=O)O)C(C)C; NHBn = c1ccc(CN*)cc1
Assay: qHTS for Inhibitors of binding or entry into cells for Lassa Virus; note: nearly all actives have a fitted effect of over 50% in size
Details: Lassa virus pseudotype entry inhibition, cell reporter; activity change, negative = inhibition: at 37.9 µM (top of the series) unless noted
For `COCCC1CCCCN1C(=O)c1cc(COc2ccc(-n3cncn3)cc2)on1` (stereo not given), the Potency was inconclusive: 7.08 µM [inhibitor, partial curve]. In the case of `COC(=O)CN(C#N)c1nc(N(C)C)nc(N(C)C)n1`, the “activity change, negative = inhibition” value is reported as inactive: 19.9%. In the case of `CCOC(=O)C1CCN(c2cc3c(cc2NC(=O)c2ccc(F)cc2)n(C)c(=O)n3C)CC1`, the “activity change, negative = inhibition” value is reported as inactive: 3.71% [at 46.1 µM]. For `CCOc1ccc(OCC)c(-c2c(=O)n(OCc3ccccc3Br)c3ccccc3[n+]2[O-])c1`, the Potency was inconclusive: 13 µM [inhibitor, partial curve]. For `Cc1nc(NC(=O)c2ccc(F)cc2)sc1C(=O)Nc1ccc2c(c1)CCC2`, the “activity change, negative = inhibition” value was inactive: -21%. With `Cc1c(C(=O)N2CCC(C)CC2)c(S(=O)(=O)N(Cc2ccccc2)C(C)(C)C)c(C)n1C` the Potency was inconclusive: 7.94 µM [inhibitor, partial curve, poor fit]. In the case of `CN=C1SC(CC(=O)Nc2ccc(F)cc2F)C(=O)N1/N=C/c1ccc(OC(F)F)c(OC)c1` (stereo not given), the “activity change, negative = inhibition” value is reported as inactive: -16.6%. With `Cc1ccc(-c2nnc(N3CCN(C(=O)CN4CCOCC4)CC3)c3ccccc23)cc1` the “activity change, negative = inhibition” value was inactive: -11.5%. In the case of `CC(=O)Nc1ccc(S(=O)(=O)NCCC(=O)NCCc2ccc(F)cc2)cc1`, the “activity change, negative = inhibition” value is reported as inactive: -5.65%. In the case of `O=C(NCc1ccco1)c1cc(-c2cccc(Cl)c2)on1`, the Potency is reported as inconclusive: 32.6 µM [activator, single point]. In the case of `CSc1ccccc1OCc1cc(C(=O)N2CCN(C)C(c3ccccc3)C2)no1` (stereo not given), the Potency is reported as inconclusive: 22.4 µM [inhibitor, partial curve, poor fit]. In the case of `CC1=CC2C(C(O)CC3(C)C2CC(C)C32OCOC23COCO3)C2(C)C/C(=C\O)C(=O)C=C12` (stereo not given), the Potency is reported as inconclusive: 10 µM [inhibitor, partial curve, poor fit]. With `O=S(=O)(c1ccc(F)cc1)c1nc(-c2ccco2)oc1Nc1ccc(F)cc1` the “activity change, negative = inhibition” value was inactive: -9.97%. With `CC(NC(=O)Cn1ccc2cc(S(=O)(=O)N3CCCCCC3)ccc21)c1ccccc1` (stereo not given) the “activity change, negative = inhibition” value was inactive: -28% [at 46.1 µM]. With `C=C(C)COc1ccc(-c2[nH]ncc2-c2ccccc2)c(O)c1` the Potency was active: 8.91 µM. In the case of `CCNC(=O)CSc1ncnc2sccc12`, the Potency is reported as inconclusive: 35.5 µM [activator, single point]. In the case of `Oc1c(CN2CCCC(C(F)(F)F)C2)cc(Cl)c2ccccc12` (stereo not given), the Potency is reported as inconclusive: 35.5 µM [inhibitor, single point]. With `CCCCCCCC(=O)Nc1ccc(S(=O)(=O)Nc2nccs2)cc1` the “activity change, negative = inhibition” value was inactive: -7.46%. In the case of `COc1ccc(N2CCN(C(=O)c3cccn3-c3nnc(N4CCCC4)s3)CC2)cc1`, the “activity change, negative = inhibition” value is reported as inactive: -2.29% [at 46.1 µM]. In the case of `O=C(NC(=S)Nc1cccc(NC(=S)NC(=O)c2ccccc2)c1)c1ccccc1`, the “activity change, negative = inhibition” value is reported as inactive: -14.8% [at 46.1 µM]. With `Cc1cc(C)c(NC(=O)Cn2c(=O)n(CCC(=O)N3CCc4ccccc4C3)c(=O)c3ccccc32)c(C)c1` the Potency was inconclusive: 35.5 µM [inhibitor, single point]. In the case of `CCN(CC)S(=O)(=O)c1ccc2c(c1)N(CC(=O)N1CCN(c3cccc(C)c3C)CC1)C(=O)CO2`, the “activity change, negative = inhibition” value is reported as inactive: -7.06% [at 46.1 µM]. In the case of `COc1ccccc1-n1cnnc1SC(C)C(=O)Nc1ccc(NC(C)=O)cc1` (stereo not given), the Potency is reported as inconclusive: 0.447 µM [inhibitor, single point]. In the case of `Cc1c(CNC2CCCCC2)c(C(=O)O)c(C)n1Cc1ccc(Cl)cc1`, the “activity change, negative = inhibition” value is reported as inactive: 1.7% [at 46.1 µM]. In the case of `O=C(c1cc2cc(Br)ccc2[nH]1)N1CCc2ccccc21`, the “activity change, negative = inhibition” value is reported as inactive: 8.92% [at 46.1 µM]. In the case of `N#Cc1cccc2cnccc12`, the Potency is reported as inconclusive: 6.31 µM [activator, full curve, poor fit]. In the case of `O=C(N/N=C/c1ccc(O)cc1)c1ccncc1`, the “activity change, negative = inhibition” value is reported as inactive: -1.67%. In the case of `CCC1CCCCN1C(=O)c1c[nH]c2ccc(S(=O)(=O)N(C)c3ccc(Cl)cc3)cc2c1=O` (stereo not given), the Potency is reported as inconclusive: 13 µM [inhibitor, partial curve]. For `C=C(C)COc1ccc(-c2[nH]ncc2Oc2cccc(OC)c2)c(O)c1`, the Potency was active: 1.58 µM. In the case of `COc1ccc(/C=C/C(=O)Nc2ccc(-n3nncc3-c3ccc(OC)c(OC)c3)cc2)cc1OC`, the Potency is reported as inconclusive: 1.58 µM [inhibitor, partial curve, poor fit]. In the case of `O=Cc1cn(-c2ccccc2)nc1-c1ccc2c(c1)OCCO2`, the Potency is reported as inconclusive: 28.2 µM [inhibitor, single point]. With `Cc1csc(NC(=O)c2cccn2C)n1` the Potency was inconclusive: 29.1 µM [inhibitor, single point]. In the case of `O=C(NCc1ccccc1Cl)c1ccc(CS(=O)(=O)c2ccc(Br)cc2)o1`, the “activity change, negative = inhibition” value is reported as inactive: -23.6% [at 46.1 µM]. In the case of `COc1ccc(Nc2ncnc3sc4c(c23)CCCC4)cc1`, the Potency is reported as inconclusive: 35.5 µM [inhibitor, single point]. With `Oc1[nH]c2c(Cl)cc(Cl)cc2c1N=NC(=S)NCC1CCCO1` (stereo not given) the Potency was inconclusive: 17.8 µM [inhibitor, single point]. With `Cc1ccc(C)c(NC(=S)NC(NC(=O)Cc2cccc3ccccc23)C(Cl)(Cl)Cl)c1` (stereo not given) the Potency was active: 7.94 µM. With `CCC(=Nc1cccc(C(F)(F)F)c1)c1c(O)n(C)c(=O)n(C)c1=O` the “activity change, negative = inhibition” value was inactive: -8.4%. For `CC(C)(C)OC(=O)N1CCc2nc(N3CCN(c4ncccn4)CC3)ncc2C1`, the Potency was inconclusive: 17.8 µM [activator, single point]. With `Cn1cnnc1SCC(=O)c1ccco1` the Potency was inconclusive: 6.51 µM [activator, single point]. In the case of `CC(C)C(NC(=O)C(C(C)C)N(C)C)C(=O)N(C)C(C(=O)N1CCCC1C(=O)N1CCCC1C(=O)NCc1ccccc1)C(C)C` (stereo not given) (ξNMe2Val-V[NMeV]PP-NHBn; configuration not given here), the Potency is reported as inconclusive: 0.0891 µM [inhibitor, full curve, poor fit]. With `CC(=O)c1c(C)[nH]c(C(=O)Nc2cccc(S(=O)(=O)N(C)C)c2)c1C` the “activity change, negative = inhibition” value was inactive: -0.661%. For `Cc1ccc(C)c(CNC(=O)Nc2ccccc2)c1`, the “activity change, negative = inhibition” value was inactive: -12.7%. In the case of `COc1ccc(NS(=O)(=O)c2cccc(C(=O)OCC(=O)N3CCN(c4ccc(OC)cc4)CC3)c2)cc1`, the Potency is reported as inconclusive: 35.5 µM [inhibitor, single point]. For `Cc1onc(-c2ccccc2)c1C(=O)Nc1cccc(S(=O)(=O)N2CCCCC2)c1`, the Potency was inconclusive: 15.8 µM [inhibitor, single point]. In the case of `CCCSc1nc(O)c(C(c2ccc(OC)c(O)c2)c2c(O)nc(SCCC)n(C)c2=O)c(=O)n1C`, the Potency is reported as inconclusive: 7.08 µM [inhibitor, partial curve, poor fit].

Reference: PubChem BioAssay AID540256 (National Center for Advancing Translational Sciences (NCATS), 2011)
% is set by controls: 0 for no effect and ±100 for the full control effect; potency is the fitted concentration of half-maximal effect.
